Reference: PubChem BioAssay AID504834 (National Center for Advancing Translational Sciences (NCATS), 2011)
Out of some 320,000 compounds screened, about 22,000 (6.9%) were called active. This list was built around the results that the source calls inconclusive (neither active nor inactive); the mix of calls is not that of the screen. Calls come from the whole dose curve; as a rule, active = well fitted inhibition curve with a large enough effect; inconclusive = small, poorly fitted or top-dose-only effect, or another doubt; inactive = no such curve, though single readings can be large or run the other way. Potencies beside an inconclusive call are fits to weak or partial responses and may not hold up.

Test: Primary qHTS for delayed death inhibitors of the malarial parasite plastid, 96 hour incubation
Details: P. falciparum luciferase reporter growth; series mostly up to 28.7 µM
Summary of the method: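 Compounds incubated with erythrocytes infected by luciferase-expressing P. falciparum (2% hematocrit, 0.05% parasitemia final) for 96 hours, 37 C in 5% CO2. Growth inhibition scored as decreased luciferase luminescence.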
Potency is the fitted concentration of half-maximal effect.

SMILES	Potency
COC(=O)c1ccc(C)c(NC(=O)Cn2cnc3ccccc3c2=O)c1	inconclusive: 3.7 µM [inhibitor, full curve]
COc1ccc2[nH]c3c4c(ccc3c2c1)C(=O)C=CC4=O	inconclusive: 18.5 µM [inhibitor, single point]
CC1CC(Nc2ccccc2)=CC(=O)O1 (stereo not drawn)	inconclusive: 18.5 µM [inhibitor, single point]
CCCCn1c(NCc2ccc3c(c2)OCO3)nc2ccccc21	inconclusive: 18.5 µM [inhibitor, single point]
CCOC(=O)c1ccc(N/C(=N/S(=O)(=O)c2ccccc2)c2ccccc2)cc1	inconclusive: 1.65 µM [inhibitor, partial curve, poor fit]
CC(NS(=O)(=O)c1ccc(Br)cc1)C(=O)NCc1ccco1 (stereo not drawn)	inactive
CCCC(=O)Nc1nc(-c2ccc3c(c2)CCN3S(C)(=O)=O)cs1	inactive
COc1ccc(N(Cc2cc3ccc(C)cc3[nH]c2=O)S(=O)(=O)c2ccccc2)cc1	inconclusive: 14.7 µM [inhibitor, partial curve]
CCn1cc(C(=O)NCCCN2CCC(C)CC2)c(=O)c2cc(S(=O)(=O)N3CCOCC3)ccc21	inconclusive: 13.1 µM [inhibitor, single point]
C/C(CC(=O)Nc1cccc(Cl)c1Cl)=N\NC(=O)C(=O)N1CCCC1	inactive
CCOc1ccccc1NC(=O)CSc1ccc(-c2ccco2)nn1	inconclusive: 14.7 µM [inhibitor, partial curve, poor fit]
O=C(Nc1ccc(OCC(F)(F)C(F)F)c(C(F)(F)F)c1)c1ccccc1O	active: 3.7 µM
O=C(NCc1ccco1)c1ccc2c(=O)n(-c3ccccc3)c(=O)n(Cc3cccc(F)c3)c2c1	inconclusive: 13.1 µM [inhibitor, partial curve, poor fit]
C[C@@H]1COc2c(N3CCN(C)CC3)c(F)cc3c(=O)c(C(=O)O)cn1c23	inconclusive: 15.1 µM [inhibitor, single point]
COc1ccccc1CNC(=O)c1cc(-c2ccncc2)nc2c(Cl)cccc12	inactive
CN(CCCN1c2ccccc2CCc2ccccc21)CC(=O)c1ccc(Cl)cc1	active: 15.1 µM
CCCCOc1ccc(Cl)cc1CSc1nnc(CC)n1N	inactive
O=C(CSCc1nc2ccccc2[nH]1)N1CCN(c2cccc(Cl)c2)CC1	inconclusive: 5.22 µM [inhibitor, partial curve]
O=C(COc1cccc2cccnc12)Nc1ccccc1N1CCOCC1	inconclusive: 11.7 µM [inhibitor, single point]
CN1CCC(N(C)S(=O)(=O)c2ccc(NC(=O)COc3ccc(Cl)cc3)cc2)CC1	active: 4.15 µM
Cc1ccc(C(=O)O)cc1S(=O)(=O)Nc1ccccc1C(=O)NC1CC1	inactive
Cc1ccc(S(=O)(=O)N(C)c2ccc(OCC(=O)OCC(=O)N(CC#N)c3ccccc3)cc2)cc1	inactive

Some of the entries so far, as comma-separated lines.
SMILES,Potency
COc1ccc2[nH]c3c4c(ccc3c2c1)C(=O)C=CC4=O,"inconclusive: 18.5 µM [inhibitor, single point]"
O=C(Nc1ccc(OCC(F)(F)C(F)F)c(C(F)(F)F)c1)c1ccccc1O,active: 3.7 µM

(more compounds)

SMILES	Potency
Cc1cc(C)n2nc(C(=O)N3CCCC(CNS(=O)(=O)c4cccs4)C3)cc2n1 (stereo not drawn)	inconclusive: 2.62 µM [inhibitor, full curve, poor fit]
C=C(C)CSc1nnc([C@@H]2CCCN2C(=O)OC(C)(C)C)o1	inactive
C=CCn1cc(C(=O)NCc2ccc3c(c2)OCO3)c(=O)c2cc(S(=O)(=O)N(CC)CC)ccc21	inconclusive: 13.1 µM [inhibitor, partial curve, poor fit]
CCc1ccc(-c2cc(C)no2)cc1S(=O)(=O)N1CCOc2ccccc21	inconclusive: 11.7 µM [inhibitor, single point]
C=CCN1C(=O)N(c2ccccc2)C(=O)C1CC(=O)Nc1ccc(OC)cc1 (stereo not drawn)	inactive
CCOc1ccc(NC(=O)C2=C(C)C(=O)OC23CCC(C)CC3)cc1 (stereo not drawn)	inactive
CCCS(=O)(=O)N1CCCC(C(=O)Oc2ccc(Cl)cc2)C1 (stereo not drawn)	inconclusive: 11.7 µM [inhibitor, single point]
O=c1c2ccccc2nc(-c2cccs2)n1-c1ccc2ccccc2c1	inconclusive: 11.7 µM [inhibitor, partial curve]
CCOc1ccc(S(=O)(=O)N2CCN(C(=S)NCc3ccccc3)CC2)cc1	active: 2.08 µM
COc1ccc(CN(Cc2ccc(C(=O)O)cc2)C(=S)Nc2cccc(C)c2)cc1OC	inconclusive: 0.0928 µM [inhibitor, full curve, poor fit]
COc1ccc(Cl)cc1NC(=O)C[n+]1ccccc1	inconclusive: 18.5 µM [inhibitor, single point]
CCc1cc2cc(OC)ccc2nc1SCC(=O)Nc1cc(OC)c(OC)cc1C(=O)O	inconclusive: 9.28 µM [inhibitor, single point]
C/C(=N\NC(=S)Nc1ccc(C)c(C)c1)c1ccc(N2CCOCC2)cc1	active: 3.7 µM
CC(=O)O[C@H]1CC[C@H]2[C@@H]3CCC4=CC(=O)CCC4=C3C=C[C@]12C	inconclusive: 10.7 µM [inhibitor, partial curve, poor fit]
Fc1ccc(Oc2nccc(-c3ccc(Cl)cc3)n2)cc1	inconclusive: 1.85 µM [inhibitor, single point]
CC(OC(=O)/C(C#N)=C/c1ccc(N(C)C)cc1)C(=O)N(C)Cc1ccccc1 (stereo not drawn)	inconclusive: 14.7 µM [inhibitor, partial curve, poor fit]
COc1ccc(N2CCN(C3CCCN(Cc4ccc(F)c(F)c4)C3)CC2)cc1 (stereo not drawn)	inconclusive: 18.5 µM [inhibitor, single point]
CCCOc1c(Br)cc(C2C3=C(CCCC3=O)N(CC)C3=C2C(=O)CCC3)cc1OC	inactive
COc1ccc(NC(=O)C2CCCN(S(=O)(=O)c3c(C)[nH]c(=O)[nH]c3=O)C2)cc1 (stereo not drawn)	inconclusive: 0.0828 µM [inhibitor, full curve, poor fit]
COc1cccc(NC(=O)CN(C)C(=O)c2ccccc2CCc2ccccc2)c1	inconclusive: 10.4 µM [inhibitor, single point]
O=C(Nc1ccccc1)C1=C[C@H](C2CC2)C[C@H](OCCCCO)O1	inactive
